# Test results published in the supplement of paper PMC8728848.
# The other results are listed elsewhere or left out.
# Assays:
# Experiment in all cases: glycan array binding signal (z-score within array); higher = stronger binding
# Settings in all cases: glycan notation: IUPAC condensed, linker removed
# [1] = target: Fuc(a1-2)[GalNAc(a1-3)]Gal(b1-3)GlcNAc(b1-3)GalNAc
# Method in brief: (§1)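 Negative Z-scores can be read as non-binding. The Z-score is calculated within each array and then averaged across arrays of one protein sequence at different concentrations or buffers and across linkers. Arrays, 3228 in all, were curated from the Consortium for Functional Glycomics database and kept only where the protein sequence was available.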
# [2] = target: Fuc(a1-2)[GalNAc(a1-3)]Gal(b1-3)GlcNAc(b1-6)GalNAc
# Method in brief: as §1
# [3] = target: Fuc(a1-2)[GalNAc(a1-3)]Gal(b1-4)Glc
# Method in brief: as §1
# [4] = target: Fuc(a1-2)[GalNAc(a1-3)]Gal(b1-4)GlcNAc
# Method in brief: as §1
# [5] = target: Fuc(a1-2)[GalNAc(a1-3)]Gal(b1-4)GlcNAc(b1-2)Man
# Method in brief: as §1
# [6] = target: Fuc(a1-2)[GalNAc(a1-3)]Gal(b1-4)GlcNAc(b1-2)Man(a1-3)[Fuc(a1-2)[GalNAc(a1-3)]Gal(b1-4)GlcNAc(b1-2)Man(a1-6)]Man(b1-4)GlcNAc(b1-4)GlcNAc
# Method in brief: as §1
# [7] = target: Fuc(a1-2)[GalNAc(a1-3)]Gal(b1-4)GlcNAc(b1-2)Man(a1-3)[Fuc(a1-2)[GalNAc(a1-3)]Gal(b1-4)GlcNAc(b1-2)Man(a1-6)]Man(b1-4)GlcNAc(b1-4)[Fuc(a1-6)]GlcNAc
# Method in brief: as §1
# [8] = target: Fuc(a1-2)[GalNAc(a1-3)]Gal(b1-4)GlcNAc(b1-3)Gal(b1-4)GlcNAc
# Method in brief: as §1
# [9] = target: Fuc(a1-2)[GalNAc(a1-3)]Gal(b1-4)GlcNAc(b1-3)Gal(b1-4)GlcNAc(b1-3)Gal(b1-4)GlcNAc
# Method in brief: as §1
# [10] = target: Fuc(a1-2)[GalNAc(a1-3)]Gal(b1-4)GlcNAc(b1-3)GalNAc
# Method in brief: as §1
# [11] = target: Fuc(a1-2)[GalNAc(a1-3)]Gal(b1-4)GlcNAc(b1-3)[Fuc(a1-2)[GalNAc(a1-3)]Gal(b1-4)GlcNAc(b1-6)]GalNAc
# Method in brief: as §1
# [12] = target: Fuc(a1-2)[GalNAc(a1-3)]Gal(b1-4)GlcNAc(b1-6)GalNAc
# Method in brief: as §1
# [13] = target: Fuc(a1-2)[GalNAc(a1-3)]Gal(b1-4)[Fuc(a1-3)]GlcNAc
# Method in brief: as §1
# [14] = target: Fuc(a1-2)[GalNAc(a1-3)]Gal(b1-4)[Fuc(a1-3)]GlcNAc(b1-3)GalNAc
# Method in brief: as §1
# [15] = target: Fuc(a1-2)[GalNAc(a1-4)]Gal(b1-4)GlcNAc
# Method in brief: as §1
# [16] = target: Fuc(a1-2)[GalNAc(b1-3)]Gal
# Method in brief: as §1
# [17] = target: Fuc(a1-3)GlcNAc
# Method in brief: as §1
# [18] = target: Fuc(a1-3)[Gal(b1-4)]Glc6S
# Method in brief: as §1
# [19] = target: Fuc(a1-3)[Gal(b1-4)]GlcNAc
# Method in brief: as §1
# [20] = target: Fuc(a1-3)[Gal(b1-4)]GlcNAc(b1-2)Man
# Method in brief: as §1
# [21] = target: Fuc(a1-3)[Gal(b1-4)]GlcNAc(b1-2)Man(a1-3)[Fuc(a1-3)[Gal(b1-4)]GlcNAc(b1-2)Man(a1-6)]Man(b1-4)GlcNAc(b1-4)GlcNAc
# Method in brief: as §1
# [22] = target: Fuc(a1-3)[Gal(b1-4)]GlcNAc(b1-2)Man(a1-3)[Fuc(a1-3)[Gal(b1-4)]GlcNAc(b1-2)Man(a1-6)]Man(b1-4)GlcNAc(b1-4)[Fuc(a1-6)]GlcNAc
# Method in brief: as §1
# [23] = target: Fuc(a1-3)[Gal(b1-4)]GlcNAc(b1-3)Gal(b1-3)[Fuc(a1-4)]GlcNAc
# Method in brief: as §1
# [24] = target: Fuc(a1-3)[Gal(b1-4)]GlcNAc(b1-3)Gal(b1-4)[Fuc(a1-3)]GlcNAc
# Method in brief: as §1
# [25] = target: Fuc(a1-3)[Gal(b1-4)]GlcNAc(b1-3)Gal(b1-4)[Fuc(a1-3)]GlcNAc(b1-3)Gal(b1-4)[Fuc(a1-3)]GlcNAc
# Method in brief: as §1
# [26] = target: Fuc(a1-3)[Gal(b1-4)]GlcNAc(b1-3)GalNAc
# Method in brief: as §1
# [27] = target: Fuc(a1-3)[Gal(b1-4)]GlcNAc(b1-6)GalNAc
# Method in brief: as §1
# [28] = target: Fuc(a1-3)[Gal(b1-4)]GlcNAc(b1-6)[Gal(b1-3)GlcNAc(b1-3)]Gal(b1-4)Glc
# Method in brief: as §1
# [29] = target: Fuc(a1-3)[Gal(b1-4)]GlcNAc6S
# Method in brief: as §1
# [30] = target: Fuc(a1-3)[Gal3S(b1-4)]Glc
# Method in brief: as §1
# [31] = target: Fuc(a1-3)[Gal3S(b1-4)]GlcNAc
# Method in brief: as §1
# [32] = target: Fuc(a1-3)[Gal3S(b1-4)]GlcNAc6S
# Method in brief: as §1
# [33] = target: Fuc(a1-3)[GalNAc(b1-4)]GlcNAc
# Method in brief: as §1
# [34] = target: Fuc(a1-3)[GalNAc(b1-4)]GlcNAc6S
# Method in brief: as §1
# [35] = target: Fuc(a1-4)GlcNAc
# Method in brief: as §1
# [36] = target: Fuc(b1-3)GlcNAc
# Method in brief: as §1
# [37] = target: Gal(a1-2)Gal
# Method in brief: as §1
# [38] = target: Gal(a1-3)Gal
# Method in brief: as §1
# [39] = target: Gal(a1-3)Gal(b1-3)GlcNAc
# Method in brief: as §1
# [40] = target: Gal(a1-3)Gal(b1-3)GlcNAc(b1-2)Man
# Method in brief: as §1
# [41] = target: Gal(a1-3)Gal(b1-3)GlcNAc(b1-2)Man(a1-3)[Gal(a1-3)Gal(b1-3)GlcNAc(b1-2)Man(a1-6)]Man(b1-4)GlcNAc(b1-4)GlcNAc
# Method in brief: as §1
# [42] = target: Gal(a1-3)Gal(b1-3)GlcNAc(b1-3)GalNAc
# Method in brief: as §1
# [43] = target: Gal(a1-3)Gal(b1-3)GlcNAc(b1-6)GalNAc
# Method in brief: as §1
# [44] = target: Gal(a1-3)Gal(b1-3)[Fuc(a1-4)]GlcNAc(b1-2)Man(a1-3)[Gal(a1-3)Gal(b1-3)[Fuc(a1-4)]GlcNAc(b1-2)Man(a1-6)]Man(b1-4)GlcNAc(b1-4)GlcNAc
# Method in brief: as §1
# [45] = target: Gal(a1-3)Gal(b1-4)Glc
# Method in brief: as §1
binder,measurement,setting,value
LlpA (Burkholderia cenocepacia) (protein) MGSSHHHHHHSSGLVPRGSHKILGSNETLSAGNVVYSDNGQYHLAMQTDGNLVVYGPTGAVWQSQTSGSGGNRAVMQGDGNLVIYRADNTAAWSSKTAHPGAFLAVQDDGNVVIYWPRPAWASNTSDPATQQSAESKYLASGSTMSAGQTVTVAQYMLVFQADGNLVLYKNGGNPIWSTGTQGKGATYAVMQSDGNFVIYAGSTALWSTKTNGANGAQLVLQSDGNLVIYAPTAAWSTKFGLVTAPTSTSTSNNGPGSGICVGVCPPHPLNGNPFSPVGVGTTGLGFPTPGYPGAAF,glycan array binding signal (z-score),[1],0.363
same,glycan array binding signal (z-score),[2],-0.852
same,glycan array binding signal (z-score),[3],0.875
same,glycan array binding signal (z-score),[4],-0.88
same,glycan array binding signal (z-score),[5],-1.34
same,glycan array binding signal (z-score),[6],1.06
same,glycan array binding signal (z-score),[7],0.142
same,glycan array binding signal (z-score),[8],-0.265
same,glycan array binding signal (z-score),[9],1.26
same,glycan array binding signal (z-score),[10],-2.33
same,glycan array binding signal (z-score),[11],0.109
same,glycan array binding signal (z-score),[12],-1.15
same,glycan array binding signal (z-score),[13],0.612
same,glycan array binding signal (z-score),[14],-0.551
same,glycan array binding signal (z-score),[15],0.217
same,glycan array binding signal (z-score),[16],0.18
same,glycan array binding signal (z-score),[17],0.988
same,glycan array binding signal (z-score),[18],1.04
same,glycan array binding signal (z-score),[19],0.125
same,glycan array binding signal (z-score),[20],0.528
same,glycan array binding signal (z-score),[21],1.04
same,glycan array binding signal (z-score),[22],2.08
same,glycan array binding signal (z-score),[23],-0.813
same,glycan array binding signal (z-score),[24],0.798
same,glycan array binding signal (z-score),[25],-0.408
same,glycan array binding signal (z-score),[26],0.159
same,glycan array binding signal (z-score),[27],0.339
same,glycan array binding signal (z-score),[28],-0.198
same,glycan array binding signal (z-score),[29],1.66
same,glycan array binding signal (z-score),[30],1.2
same,glycan array binding signal (z-score),[31],0.681
same,glycan array binding signal (z-score),[32],0.228
same,glycan array binding signal (z-score),[33],0.5
same,glycan array binding signal (z-score),[34],0.011
same,glycan array binding signal (z-score),[35],1.59
same,glycan array binding signal (z-score),[36],-0.204
same,glycan array binding signal (z-score),[37],-0.358
same,glycan array binding signal (z-score),[38],-0.213
same,glycan array binding signal (z-score),[39],-0.246
same,glycan array binding signal (z-score),[40],0.249
same,glycan array binding signal (z-score),[41],0.408
same,glycan array binding signal (z-score),[42],-1.16
same,glycan array binding signal (z-score),[43],0.173
same,glycan array binding signal (z-score),[44],1.1
same,glycan array binding signal (z-score),[45],-0.106

# Reprinted at random: 3 records from the list, in no set order.
binder,measurement,setting,value
LlpA (Burkholderia cenocepacia) (protein) MGSSHHHHHHSSGLVPRGSHKILGSNETLSAGNVVYSDNGQYHLAMQTDGNLVVYGPTGAVWQSQTSGSGGNRAVMQGDGNLVIYRADNTAAWSSKTAHPGAFLAVQDDGNVVIYWPRPAWASNTSDPATQQSAESKYLASGSTMSAGQTVTVAQYMLVFQADGNLVLYKNGGNPIWSTGTQGKGATYAVMQSDGNFVIYAGSTALWSTKTNGANGAQLVLQSDGNLVIYAPTAAWSTKFGLVTAPTSTSTSNNGPGSGICVGVCPPHPLNGNPFSPVGVGTTGLGFPTPGYPGAAF,glycan array binding signal (z-score),[32],0.228
same,glycan array binding signal (z-score),[17],0.988
same,glycan array binding signal (z-score),[5],-1.34
